Data taken from patent publication US20100056441A1, “Method for Inhibiting Angiogenesis” (priority 2006, published 2010).
Part of at least one peptide drawing is inferred or uncertain, most often the ends. Non-standard residues stand in square brackets, D forms with d. Residues, ends and D or L forms follow the SMILES beside them.

Key:
hepatic adenomas and HCC = test: Number and size of DEN/PB-induced liver tumors (H&E stained liver sections), Foxm1 fl/fl mice; type: in vivo, mouse
[1] = tested on: endothelial cells of HCC regions; test: CD34 immunostaining of HCC tumor sections (HCC angiogenesis); type: in vivo, mouse; details: daily IP 5 mg/Kg, DEN/PB HCC
[2] = tested on: human microvascular endothelial cells (HMEC-1 cells); test: TUNEL apoptosis assay in HMEC-1 cells; type: cell-based; details: 100 μM, 48 hours
PUMA [3] = test: Western blot of liver tumor extracts, PUMA; type: in vivo; details: treated mouse tumors
Foxm1 protein = molecular target: T1, Foxm1 protein (Mus musculus, UniProt O08696); test: Foxm1 immunostaining of liver tumor sections (nucleolar targeting); type: in vivo; details: daily IP 5 mg/Kg, 4 weeks
T1 construct: partially targeting the endogenous Foxm1 protein to the nucleolus of hepatic tumor cells; from tissue; host or cells: liver tumour sections of DEN/PB-treated Foxm1 fl/fl mice
T1 sequence (O08696 1-760): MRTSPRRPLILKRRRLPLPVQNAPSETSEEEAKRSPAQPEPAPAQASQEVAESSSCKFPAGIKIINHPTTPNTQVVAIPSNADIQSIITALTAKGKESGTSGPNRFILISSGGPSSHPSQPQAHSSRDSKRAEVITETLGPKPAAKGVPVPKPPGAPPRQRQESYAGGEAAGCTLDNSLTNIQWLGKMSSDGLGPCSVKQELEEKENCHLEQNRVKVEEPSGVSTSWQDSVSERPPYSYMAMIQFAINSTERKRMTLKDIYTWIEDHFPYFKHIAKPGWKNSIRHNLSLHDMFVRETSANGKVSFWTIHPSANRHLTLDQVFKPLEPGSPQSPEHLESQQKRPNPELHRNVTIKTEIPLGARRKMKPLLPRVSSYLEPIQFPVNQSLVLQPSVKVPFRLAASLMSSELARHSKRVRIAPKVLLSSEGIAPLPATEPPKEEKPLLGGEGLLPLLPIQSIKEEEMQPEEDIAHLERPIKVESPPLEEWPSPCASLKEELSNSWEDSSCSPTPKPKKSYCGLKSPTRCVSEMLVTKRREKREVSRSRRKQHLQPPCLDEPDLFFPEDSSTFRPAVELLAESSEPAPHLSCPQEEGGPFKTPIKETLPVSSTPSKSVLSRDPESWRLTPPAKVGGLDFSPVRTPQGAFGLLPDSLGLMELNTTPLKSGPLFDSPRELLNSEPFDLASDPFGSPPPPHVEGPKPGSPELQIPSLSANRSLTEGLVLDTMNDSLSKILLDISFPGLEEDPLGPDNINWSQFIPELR

hepatic tumor cells = test: BrdU incorporation in DEN/PB liver tumors, Foxm1 fl/fl mice; type: in vivo, mouse; details: treated 4 or 8 weeks, vs mutant peptide or PBS
p27^Kip1 protein = test: p27Kip1 immunohistochemistry of HCC; type: in vivo, mouse; details: daily IP 5 mg/Kg
mouse HCC cells = test: Apoptosis in mouse liver tumors (H&E, TUNEL, activated caspase 3); type: in vivo
Description: Furthermore, these apoptotic tumor cells were not apparent in FoxM1 deficient livers in dsRNA (CKO) Mx-Cre Foxm1−/− mice (FIG. 3E-3G).
To measure apoptosis in mouse livers we used the Terminal Deoxynucleotidyl Transferase-mediated dUTP-biotin Nick End Labeling (TUNEL) assay on liver sections using the ApoTag Fluorescein in situ apoptosis detection kit from Intergen (Purchase, N.Y.) according to the manufacturer's recommendations. The mean number (±SD) of TUNEL- or DAPI-positive hepatocyte nuclei was calculated per 1000 cells or 200× field by counting the number of positive hepatocyte nuclei using five different 200× fields of liver tumor sections from male mice at the indicated times of DEN/PB exposure.

[4] = tested on: HCC cells of ARF -/- Rosa 26 FoxM1b TG mice; test: BrdU labeling of HCC in ARF -/- Rosa26 FoxM1b TG mice; type: in vivo, mouse; details: daily IP 5 mg/Kg 4 weeks, vs mutant peptide or PBS
[5] = tested on: human hepatoma HepG2 cells; test: TUNEL apoptosis assay, HepG2; type: cell-based
[6] = tested on: PLC/PRF/5 cells that express mutant p53 protein; test: TUNEL apoptosis assay, PLC/PRF/5; type: cell-based, human; details: PLC/PRF/5, 25 μM, 24 hours
PUMA [7] = test: Western blot HepG2, PUMA; type: cell-based, human; details: HepG2, increasing concentrations
[8] = tested on: polo-like kinase 1 (PLK1); test: Western blot HepG2, PLK1; type: cell-based, human; details: HepG2, compared to controls
aurora B kinase = test: Western blot HepG2, aurora B kinase; type: cell-based, human; details: HepG2, compared to controls
FoxM1b = molecular target: T2, FoxM1b (Homo sapiens, UniProt Q08050); details: U2OS cells; cited from earlier work
T2 sequence (Q08050 1-748 isoform Q08050-2): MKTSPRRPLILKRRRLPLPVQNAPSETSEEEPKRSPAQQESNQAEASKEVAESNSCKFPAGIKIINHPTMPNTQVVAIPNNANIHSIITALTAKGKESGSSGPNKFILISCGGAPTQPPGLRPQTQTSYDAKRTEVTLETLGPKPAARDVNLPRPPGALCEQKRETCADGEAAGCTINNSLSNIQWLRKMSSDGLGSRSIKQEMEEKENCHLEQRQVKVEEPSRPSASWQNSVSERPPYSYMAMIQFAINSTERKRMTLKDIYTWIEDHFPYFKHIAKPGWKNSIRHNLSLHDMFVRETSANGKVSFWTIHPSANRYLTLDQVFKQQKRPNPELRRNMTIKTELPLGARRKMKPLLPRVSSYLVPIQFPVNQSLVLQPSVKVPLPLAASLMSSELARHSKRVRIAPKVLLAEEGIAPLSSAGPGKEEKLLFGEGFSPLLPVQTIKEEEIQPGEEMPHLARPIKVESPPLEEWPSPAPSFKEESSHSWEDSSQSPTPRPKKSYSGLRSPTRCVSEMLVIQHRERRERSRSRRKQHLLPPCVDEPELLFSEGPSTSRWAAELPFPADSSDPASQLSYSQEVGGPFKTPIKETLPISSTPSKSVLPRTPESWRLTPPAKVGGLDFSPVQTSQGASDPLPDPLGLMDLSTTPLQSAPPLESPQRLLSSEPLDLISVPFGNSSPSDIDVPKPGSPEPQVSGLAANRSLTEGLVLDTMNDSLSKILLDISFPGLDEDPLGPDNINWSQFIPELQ

[9] = 40 wks DEN/PB, daily IP 5 mg/Kg, mean ± SD

## CC(C)C[C@H](NC(=O)[C@H](C)NC(=O)[C@H](CS)NC(=O)[C@H](CO)NC(=O)[C@H](C)NC(=O)[C@@H](NC(=O)[C@H](CCCNC(=N)N)NC(=O)[C@@H]1CCCN1C(=O)[C@H](CCCNC(=N)N)NC(=O)[C@H](CCCNC(=N)N)NC(=O)[C@H](CO)NC(=O)[C@H](CCCNC(=N)N)NC(=O)[C@@H](NC(=O)[C@H](Cc1ccccc1)NC(=O)[C@H](CCCCN)NC(=O)[C@@H](CCCNC(=N)N)NC(=O)[C@@H](CCCNC(=N)N)NC(=O)[C@@H](CCCNC(=N)N)NC(=O)[C@@H](CCCNC(=N)N)NC(=O)[C@@H](CCCNC(=N)N)NC(=O)[C@@H](CCCNC(=N)N)NC(=O)[C@@H](CCCNC(=N)N)NC(=O)[C@@H](CCCNC(=N)N)NC(=O)[C@H](N)CCCNC(=N)N)C(C)C)[C@@H](C)O)C(=O)N[C@@H](C)C(=O)N[C@@H](Cc1ccccc1)C(=O)N[C@H](C(=O)N[C@@H](CC(N)=O)C(=O)O)C(C)C [WT ARF 26-44 peptide, rrrrrrrrrKFVRSRRPRTASCALAFVN] (H-[dR][dR][dR][dR][dR][dR][dR][dR][dR]KFVRSRRPRTASCALAFVN-OH; N-terminus and C-terminus assumed)
Hepatic adenomas and HCC; [9]
  No. of liver tumors between 0.1 and 2.0 mm^2, No. Ad.: *1.6 ± 0.6 per cm^2 liver tissue
  No. of liver tumors between 0.1 and 2.0 mm^2, No. HCC: **3.0 ± 2.1 per cm^2 liver tissue
  No. of liver tumors greater than 2.0 mm^2, No. Ad.: **2.1 ± 0.8 per cm^2 liver tissue
  No. of liver tumors greater than 2.0 mm^2, No. HCC: 0 per cm^2 liver tissue
Hepatic adenomas and HCC; treatment for 8 weeks, 5 mg/Kg daily IP
  tumor growth compared to control mouse liver tumors: significantly reduced tumor growth
[1]
  CD34 protein staining in endothelial cells of HCC: extinguished
[2]
  apoptosis of HMEC-1 cells (TUNEL): significant increase in apoptosis
PUMA [3]
  levels of PUMA (Western blot): did not significantly alter
Foxm1 protein
  Foxm1 protein staining localization in hepatic tumor cells: partially localized to the nucleolus
Hepatic tumor cells
  BrdU incorporation in liver tumors: Significant reduction in BrdU incorporation
p27^Kip1 protein
  p27^Kip1 protein localization in HCC cells: increased nuclear levels
Mouse HCC cells; Foxm1 fl/fl mice, DEN/PB HCC
  increase in apoptosis of mouse HCC cells (TUNEL): 22%
Mouse HCC cells; daily IP 5 mg/Kg, 4 or 8 weeks
  red staining (apoptotic) tumor cells in H&E stained liver tumor sections: many of the hepatic adenomas and HCC tumor cells stained red
[4]
  reduction in BrdU labeling of HCC cells: 84%
[5]; FoxM1 no. 2 siRNA electroporation
  apoptosis in response to peptide in FoxM1 depleted HepG2 cells: resistant to apoptosis
[5]; HepG2, 25 μM, 24 hours
  apoptosis (TUNEL): 50%
[5]; p53 siRNA silencing
  apoptosis in response to peptide in p53 siRNA silenced HepG2 cells: did not influence apoptosis
[6]
  apoptosis (TUNEL): 50%
PUMA [7]
  protein expression of PUMA: unchanged
[8]
  reduction in levels of PLK1 protein: 80%
Aurora B kinase
  reduction in levels of aurora B kinase protein: 80%
FoxM1b
  FoxM1b transcriptional activity: inhibited FoxM1b transcriptional activity
